{"sequences": {"note": "Protein sequences, listed by entry. Tags and fused reporters are not part of them.", "UniProt Q61221": "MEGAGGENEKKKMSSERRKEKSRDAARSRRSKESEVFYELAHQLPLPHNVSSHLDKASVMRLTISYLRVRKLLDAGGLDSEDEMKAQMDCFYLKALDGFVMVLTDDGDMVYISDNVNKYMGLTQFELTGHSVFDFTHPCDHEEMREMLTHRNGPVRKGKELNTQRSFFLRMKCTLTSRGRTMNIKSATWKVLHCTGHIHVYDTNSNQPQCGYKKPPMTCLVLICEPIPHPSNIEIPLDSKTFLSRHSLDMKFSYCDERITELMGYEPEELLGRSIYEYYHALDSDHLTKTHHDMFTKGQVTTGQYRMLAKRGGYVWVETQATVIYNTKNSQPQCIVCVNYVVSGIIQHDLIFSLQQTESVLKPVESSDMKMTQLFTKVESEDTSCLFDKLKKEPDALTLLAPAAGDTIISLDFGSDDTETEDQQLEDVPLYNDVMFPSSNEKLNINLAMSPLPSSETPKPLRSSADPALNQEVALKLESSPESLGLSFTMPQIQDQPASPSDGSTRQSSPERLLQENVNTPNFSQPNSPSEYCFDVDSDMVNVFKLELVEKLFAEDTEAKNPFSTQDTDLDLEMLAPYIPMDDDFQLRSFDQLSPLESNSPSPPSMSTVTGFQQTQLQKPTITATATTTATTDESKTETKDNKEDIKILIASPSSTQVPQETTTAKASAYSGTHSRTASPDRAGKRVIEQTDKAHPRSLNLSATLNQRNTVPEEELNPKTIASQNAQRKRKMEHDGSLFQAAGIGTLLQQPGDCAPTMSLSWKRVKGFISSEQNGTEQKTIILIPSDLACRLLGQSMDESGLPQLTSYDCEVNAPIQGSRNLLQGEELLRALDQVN", "UniProt P52480": "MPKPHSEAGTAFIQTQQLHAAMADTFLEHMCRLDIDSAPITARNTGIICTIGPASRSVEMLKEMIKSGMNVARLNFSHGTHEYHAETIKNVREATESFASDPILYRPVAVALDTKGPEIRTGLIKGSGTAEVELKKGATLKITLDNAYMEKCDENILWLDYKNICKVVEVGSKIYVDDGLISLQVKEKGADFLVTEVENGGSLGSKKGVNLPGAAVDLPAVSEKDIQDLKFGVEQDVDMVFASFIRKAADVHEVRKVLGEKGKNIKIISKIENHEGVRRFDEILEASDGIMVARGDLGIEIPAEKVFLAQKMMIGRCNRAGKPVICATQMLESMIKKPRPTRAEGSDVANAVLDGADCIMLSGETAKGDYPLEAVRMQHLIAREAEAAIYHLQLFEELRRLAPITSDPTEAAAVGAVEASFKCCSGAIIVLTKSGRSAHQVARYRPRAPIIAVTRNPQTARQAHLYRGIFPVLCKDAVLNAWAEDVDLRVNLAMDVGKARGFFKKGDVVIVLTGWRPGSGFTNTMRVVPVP"}, "source": "paper PMC10065062", "molecular_target": "HIF-1α (mouse (endogenous in BMDCs)) (UniProt Q61221)", "assay": "co-IP; BMDCs stimulated with 2 μg/mL cGAMP for 4 hours in the presence or absence of TEPP-46 (100 μM); lysis buffer 50 mM Tris-HCl, 150 mM NaCl, 1 mM EDTA, 1% Triton X-100, 10% glycerol; supernatants immunoprecipitated with antibodies and protein G-agarose beads overnight", "note": "These are yes or no findings as the source states them, for the method shown. In cells and extracts the contact can be indirect. Some binding calls cover weakened binding; strength is not graded here.", "data": [{"substance": "pyruvate kinase M2 (from UniProt P52480 1-531) (enzyme)", "values": [{"measurement": "binding", "result": "binds"}]}]}
